# Results: PubChem BioAssay
# The list shows a part of the results. Measured potencies and affinities stand elsewhere. Entries without a call are filed as inconclusive in the source.
# Experiments:
# [1] = Polyglutamine toxicity reduction dose response, whole organism Drosophila SCA1 model (AID 1595); details: at 1 µM, stronger effect = higher value
# PubChem AID 1597 = details: Drosophila SCA1 polyglutamine model, at 1 µM, stronger effect = higher value
SMILES,suppression of toxicity [1],suppression of toxicity (PubChem AID 1597)
CC(Oc1ccccc1)C(=O)N[C@@H]1C(=O)N2[C@@H]1SC(C)(C)[C@@H]2C(=O)O (stereo partly drawn),0,2.15
NC(=O)c1ccc[n+]([C@@H]2O[C@H](COP(=O)([O-])OP(=O)(O)OC[C@H]3O[C@@H](n4cnc5c(N)ncnc54)[C@H](O)[C@@H]3O)[C@@H](O)[C@H]2O)c1,2.85,9.29
CN(C)CCOC(=O)COc1ccc(Cl)cc1,1.43,5
NC(=O)NC(=O)Cc1ccccc1,4.29,6.42
CCOc1ccc(Cc2nccc3cc(OCC)c(OCC)cc23)cc1OCC,12.9,12.9
CN(C)[C@@H]1C(=O)C(C(N)=O)=C(O)[C@@]2(O)C(=O)C3=C(O)c4c(O)ccc(Cl)c4[C@@H](O)[C@H]3C[C@@H]12,0,1.43
C#CCN(C)Cc1ccccc1,7.14,13.6
CN1C(C(=O)Nc2ccccn2)=C(O)c2ccccc2S1(=O)=O,1.43,8.57
C=NC(C(=O)NC1C(=O)N2C1SC(C)(C)C2C(=O)O)c1ccccc1 (stereo not drawn),2.86,2.86
CCCn1c(=O)c2[nH]c(C3CCCC3)nc2n(CCC)c1=O,1.43,6.43
Cc1ccsc1/C=C/C1=NCCCN1C,0,0
C[C@@H]1OC(Oc2c(-c3ccc(O)c(O)c3)oc3cc(O)cc(O)c3c2=O)[C@H](O)[C@H](O)[C@H]1O (stereo partly drawn),0,2.15
CC[C@H](C)C(=O)O[C@H]1CCC=C2C=C[C@H](C)C(CCC3C[C@@H](O)CC(=O)O3)[C@H]21 (stereo partly drawn),2.85,4.29
CC[C@@H](C(=O)[C@@H](C)[C@@H](O)[C@H](C)[C@@H]1O[C@@H]([C@@H](CC)C(=O)O)CC[C@@H]1C)[C@H]1OC2(C=C[C@@H](O)[C@]3(CC[C@@](C)([C@H]4CC[C@](O)(CC)[C@H](C)O4)O3)O2)[C@H](C)C[C@@H]1C (stereo partly drawn),2.85,11.4

# Complete entries as entered above.
# `CC[C@@H](C(=O)[C@@H](C)[C@@H](O)[C@H](C)[C@@H]1O[C@@H]([C@@H](CC)C(=O)O)CC[C@@H]1C)[C@H]1OC2(C=C[C@@H](O)[C@]3(CC[C@@](C)([C@H]4CC[C@](O)(CC)[C@H](C)O4)O3)O2)[C@H](C)C[C@@H]1C` (stereo partly drawn) is listed with suppression of toxicity [1]: 2.85; suppression of toxicity (PubChem AID 1597): 11.4
# `CCOc1ccc(Cc2nccc3cc(OCC)c(OCC)cc23)cc1OCC` is listed with suppression of toxicity [1]: 12.9; suppression of toxicity (PubChem AID 1597): 12.9
